In patent publication US20080305111A1, “Anti-C35 antibodies for treating cancer” (VACCINEX, INC., priority 2006, published 2008):
No constants are given. Whether binding was seen depends on the method and setting.

Molecular target: β-galactosidase protein
Assay: flow cytometry competition: 1F2-Alexa 647 pre-incubated with β-galactosidase protein, then staining of apoptotic Taxol-treated 21MT1 cells

B1: 1F2 murine anti-C35 monoclonal antibody (antibody, V domains shown)
VH: DVQLQESGPGLVKPSQSLSLTCSVTGYSITSGYFWNWIRQFPGNKLEWMGYISYDGSNNSNPSLKNRISFTRDTSKNQFFLKFNSVTTDDSAAYYCTRGTTGFAYWGQGTLVTVSA
VL: QIVLTQSPAIMSASPGEKVTISCSASSSVSYMNWYQQKPGSSPKPWIYHTSNLASGVPARFSGSGSGTSYSLTISSMEAEDAATYYCQQYHSYPPTFGGGTKLEIK
For B1, the binding was “no binding (tested: 100-fold molar excess over 100 ng 1F2)”.
